Assay [1] deals with Protein kinase C alpha D463H (PKCα_(D463H)) (human) (UniProt P17252). The experiment in a line: co-IP.
Assay [2] addresses Protein kinase C alpha (PKCα) WT (human) (UniProt P17252). The assay can be described thus: co-IP.
For assay [3], the target named is PKA RIα, Rluc PCA reporter (UniProt P10644). The assay can be described thus: split reporter.
The target in assay [4] is Protein kinase C beta II (PKCβII) WT, Rluc PCA reporter (UniProt P05771). The assay can be described thus: split reporter.

Chains of the proteins cited; added tags and fusions are not shown.
UniProt P10644: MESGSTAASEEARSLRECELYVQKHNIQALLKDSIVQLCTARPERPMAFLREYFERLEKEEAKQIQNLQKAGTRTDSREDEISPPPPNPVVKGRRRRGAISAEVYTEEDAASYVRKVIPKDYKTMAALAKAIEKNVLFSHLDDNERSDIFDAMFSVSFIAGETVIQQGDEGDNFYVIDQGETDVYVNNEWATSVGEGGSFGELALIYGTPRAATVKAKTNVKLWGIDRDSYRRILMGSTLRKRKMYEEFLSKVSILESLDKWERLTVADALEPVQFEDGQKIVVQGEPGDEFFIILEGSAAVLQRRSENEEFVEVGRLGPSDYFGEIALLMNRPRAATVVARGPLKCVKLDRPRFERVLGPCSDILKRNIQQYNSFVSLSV

No constants are given. Whether binding was seen depends on the method and setting. In cells and extracts the contact can be indirect. Some entries that bind do so weakly or less than the wild type.

Consider “Protein kinase C alpha (PKCα) WT (from UniProt P17252 1-672) (enzyme)”, for which, in assay [1], the binding entry is listed as “binds”.
In the case of “Protein kinase C alpha D463H (PKCα_(D463H)) (from UniProt P17252 1-672) (enzyme)”, the binding result in assay [2] was “binds”.
Turning to “Protein kinase C beta II (PKCβII) WT, Rluc PCA reporter (from UniProt P05771-2 1-673) (enzyme)”, the results for the binding result in assay [3] and in assay [4] were “binds weakly” and “binds”, respectively.
